Test results published in the supplement of paper PMC11732987, “Enantioselective OTUD7B fragment discovery through chemoproteomics screening and high-throughput optimisation” (Communications Chemistry, 2025).
The other results are listed elsewhere or left out. The data scatter; read single values as rough.

Amino acid sequences for entries named in this document (tags omitted). A change or cut given only in a name is not applied to a line headed by its entry. Residues count along the entry.
UniProt Q15046: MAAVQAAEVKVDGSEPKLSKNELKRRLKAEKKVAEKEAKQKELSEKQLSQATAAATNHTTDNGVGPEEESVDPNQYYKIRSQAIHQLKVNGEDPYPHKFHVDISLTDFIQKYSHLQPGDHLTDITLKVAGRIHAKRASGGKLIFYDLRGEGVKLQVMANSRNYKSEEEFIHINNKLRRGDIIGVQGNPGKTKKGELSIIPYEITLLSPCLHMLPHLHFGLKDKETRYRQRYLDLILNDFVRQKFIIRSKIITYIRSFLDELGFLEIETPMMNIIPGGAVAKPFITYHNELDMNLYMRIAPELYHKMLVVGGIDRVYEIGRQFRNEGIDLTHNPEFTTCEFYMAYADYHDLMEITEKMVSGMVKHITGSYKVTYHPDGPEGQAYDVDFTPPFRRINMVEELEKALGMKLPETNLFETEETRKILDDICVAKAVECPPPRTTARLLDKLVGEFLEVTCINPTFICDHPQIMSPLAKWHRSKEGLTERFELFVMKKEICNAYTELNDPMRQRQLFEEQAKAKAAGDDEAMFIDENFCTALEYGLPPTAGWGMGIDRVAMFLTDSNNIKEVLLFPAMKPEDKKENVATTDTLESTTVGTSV
UniProt Q14678: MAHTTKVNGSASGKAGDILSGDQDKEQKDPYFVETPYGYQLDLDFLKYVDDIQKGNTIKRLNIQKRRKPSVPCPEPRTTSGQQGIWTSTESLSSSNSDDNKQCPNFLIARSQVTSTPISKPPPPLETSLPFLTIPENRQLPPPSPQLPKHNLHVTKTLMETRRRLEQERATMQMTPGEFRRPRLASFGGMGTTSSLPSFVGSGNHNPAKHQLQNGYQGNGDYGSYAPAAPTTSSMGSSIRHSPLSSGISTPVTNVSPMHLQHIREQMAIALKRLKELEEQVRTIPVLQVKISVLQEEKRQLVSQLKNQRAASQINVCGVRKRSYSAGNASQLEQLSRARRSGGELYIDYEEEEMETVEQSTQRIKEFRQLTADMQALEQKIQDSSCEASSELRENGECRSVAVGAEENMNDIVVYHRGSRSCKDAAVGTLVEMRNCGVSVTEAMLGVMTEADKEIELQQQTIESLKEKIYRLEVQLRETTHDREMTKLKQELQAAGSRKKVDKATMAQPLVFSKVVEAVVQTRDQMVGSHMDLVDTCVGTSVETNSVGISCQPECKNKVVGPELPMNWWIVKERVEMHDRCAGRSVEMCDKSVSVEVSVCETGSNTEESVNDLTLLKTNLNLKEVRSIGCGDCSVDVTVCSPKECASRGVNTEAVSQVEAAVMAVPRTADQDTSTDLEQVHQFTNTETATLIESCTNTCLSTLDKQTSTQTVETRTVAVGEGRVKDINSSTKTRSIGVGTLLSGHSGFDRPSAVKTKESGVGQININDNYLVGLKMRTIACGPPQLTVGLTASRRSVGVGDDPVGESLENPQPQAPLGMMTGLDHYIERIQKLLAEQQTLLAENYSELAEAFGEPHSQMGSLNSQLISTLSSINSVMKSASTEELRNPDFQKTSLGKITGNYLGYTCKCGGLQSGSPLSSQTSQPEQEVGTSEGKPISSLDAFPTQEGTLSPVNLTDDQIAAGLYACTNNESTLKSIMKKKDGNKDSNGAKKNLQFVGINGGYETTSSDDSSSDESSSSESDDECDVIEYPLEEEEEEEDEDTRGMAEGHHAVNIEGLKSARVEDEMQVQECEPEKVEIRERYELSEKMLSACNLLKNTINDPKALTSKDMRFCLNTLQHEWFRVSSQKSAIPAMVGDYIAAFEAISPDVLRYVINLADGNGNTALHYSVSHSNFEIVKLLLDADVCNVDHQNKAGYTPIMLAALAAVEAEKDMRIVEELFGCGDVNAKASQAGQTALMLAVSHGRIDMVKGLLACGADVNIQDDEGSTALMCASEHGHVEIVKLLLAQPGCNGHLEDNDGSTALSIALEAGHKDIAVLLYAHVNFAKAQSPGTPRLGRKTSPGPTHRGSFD
UniProt Q9ULI4: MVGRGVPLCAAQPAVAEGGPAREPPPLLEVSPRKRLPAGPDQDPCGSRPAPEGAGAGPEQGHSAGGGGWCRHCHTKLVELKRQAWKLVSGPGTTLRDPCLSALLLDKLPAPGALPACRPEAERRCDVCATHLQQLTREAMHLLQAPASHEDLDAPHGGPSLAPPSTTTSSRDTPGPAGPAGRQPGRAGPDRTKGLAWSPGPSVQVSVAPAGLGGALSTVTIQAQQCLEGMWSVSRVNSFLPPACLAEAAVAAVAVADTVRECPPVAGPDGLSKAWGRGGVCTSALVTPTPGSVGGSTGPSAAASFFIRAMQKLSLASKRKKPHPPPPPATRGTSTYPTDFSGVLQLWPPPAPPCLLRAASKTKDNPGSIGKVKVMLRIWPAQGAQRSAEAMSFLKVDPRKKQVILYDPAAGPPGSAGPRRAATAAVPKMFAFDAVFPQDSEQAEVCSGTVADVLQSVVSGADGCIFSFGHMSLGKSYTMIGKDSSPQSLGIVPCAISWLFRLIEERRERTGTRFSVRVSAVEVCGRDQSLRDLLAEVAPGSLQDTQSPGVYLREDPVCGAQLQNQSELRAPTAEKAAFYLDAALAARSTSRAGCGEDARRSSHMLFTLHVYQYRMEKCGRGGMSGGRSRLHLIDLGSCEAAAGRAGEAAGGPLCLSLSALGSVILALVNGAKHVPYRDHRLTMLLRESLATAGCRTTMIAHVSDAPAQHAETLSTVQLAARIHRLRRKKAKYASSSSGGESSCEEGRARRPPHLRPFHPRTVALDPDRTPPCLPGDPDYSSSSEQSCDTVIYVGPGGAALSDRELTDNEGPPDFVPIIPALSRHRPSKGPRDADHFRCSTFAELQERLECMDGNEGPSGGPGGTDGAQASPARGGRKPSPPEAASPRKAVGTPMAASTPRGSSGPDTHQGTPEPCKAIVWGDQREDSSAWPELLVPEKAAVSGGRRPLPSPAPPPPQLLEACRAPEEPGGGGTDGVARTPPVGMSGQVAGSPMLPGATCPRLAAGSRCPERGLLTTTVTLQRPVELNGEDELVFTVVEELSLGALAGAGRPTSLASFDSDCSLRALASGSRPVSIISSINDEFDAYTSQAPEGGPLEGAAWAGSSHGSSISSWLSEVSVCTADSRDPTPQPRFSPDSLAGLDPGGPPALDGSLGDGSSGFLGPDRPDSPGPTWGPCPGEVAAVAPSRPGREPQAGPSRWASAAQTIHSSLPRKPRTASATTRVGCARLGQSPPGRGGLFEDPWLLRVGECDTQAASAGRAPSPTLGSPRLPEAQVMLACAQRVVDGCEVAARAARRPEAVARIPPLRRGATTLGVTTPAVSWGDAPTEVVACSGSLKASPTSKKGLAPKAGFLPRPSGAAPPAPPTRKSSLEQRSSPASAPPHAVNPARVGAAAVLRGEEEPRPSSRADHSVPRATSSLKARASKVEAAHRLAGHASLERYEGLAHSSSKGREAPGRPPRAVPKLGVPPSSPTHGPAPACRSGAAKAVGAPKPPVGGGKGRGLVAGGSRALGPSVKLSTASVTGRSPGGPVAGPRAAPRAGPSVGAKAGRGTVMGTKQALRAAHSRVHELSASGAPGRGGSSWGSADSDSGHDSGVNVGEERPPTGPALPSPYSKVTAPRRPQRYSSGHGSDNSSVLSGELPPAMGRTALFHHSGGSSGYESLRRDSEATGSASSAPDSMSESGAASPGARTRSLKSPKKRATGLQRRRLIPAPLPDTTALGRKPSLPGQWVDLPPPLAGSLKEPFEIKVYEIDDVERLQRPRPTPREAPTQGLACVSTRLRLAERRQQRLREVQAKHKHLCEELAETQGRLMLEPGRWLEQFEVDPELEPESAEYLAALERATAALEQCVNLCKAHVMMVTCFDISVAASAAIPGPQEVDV
UniProt Q14807: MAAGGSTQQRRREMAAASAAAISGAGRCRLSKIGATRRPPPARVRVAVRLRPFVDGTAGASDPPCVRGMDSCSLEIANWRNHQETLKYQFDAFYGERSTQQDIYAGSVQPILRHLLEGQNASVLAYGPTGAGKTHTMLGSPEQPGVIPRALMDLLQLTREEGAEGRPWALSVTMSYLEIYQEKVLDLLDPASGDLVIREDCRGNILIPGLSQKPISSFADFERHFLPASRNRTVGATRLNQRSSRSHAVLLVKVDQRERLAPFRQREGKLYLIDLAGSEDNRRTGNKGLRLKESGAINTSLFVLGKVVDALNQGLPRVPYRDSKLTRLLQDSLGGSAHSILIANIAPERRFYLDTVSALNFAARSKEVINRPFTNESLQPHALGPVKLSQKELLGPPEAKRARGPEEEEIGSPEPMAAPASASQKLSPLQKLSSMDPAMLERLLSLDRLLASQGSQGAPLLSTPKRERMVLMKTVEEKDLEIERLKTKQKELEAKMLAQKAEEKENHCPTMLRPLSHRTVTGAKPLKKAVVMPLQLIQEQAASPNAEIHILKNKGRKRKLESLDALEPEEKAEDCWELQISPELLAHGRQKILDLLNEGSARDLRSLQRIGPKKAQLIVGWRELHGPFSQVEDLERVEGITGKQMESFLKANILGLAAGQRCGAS
UniProt P28290: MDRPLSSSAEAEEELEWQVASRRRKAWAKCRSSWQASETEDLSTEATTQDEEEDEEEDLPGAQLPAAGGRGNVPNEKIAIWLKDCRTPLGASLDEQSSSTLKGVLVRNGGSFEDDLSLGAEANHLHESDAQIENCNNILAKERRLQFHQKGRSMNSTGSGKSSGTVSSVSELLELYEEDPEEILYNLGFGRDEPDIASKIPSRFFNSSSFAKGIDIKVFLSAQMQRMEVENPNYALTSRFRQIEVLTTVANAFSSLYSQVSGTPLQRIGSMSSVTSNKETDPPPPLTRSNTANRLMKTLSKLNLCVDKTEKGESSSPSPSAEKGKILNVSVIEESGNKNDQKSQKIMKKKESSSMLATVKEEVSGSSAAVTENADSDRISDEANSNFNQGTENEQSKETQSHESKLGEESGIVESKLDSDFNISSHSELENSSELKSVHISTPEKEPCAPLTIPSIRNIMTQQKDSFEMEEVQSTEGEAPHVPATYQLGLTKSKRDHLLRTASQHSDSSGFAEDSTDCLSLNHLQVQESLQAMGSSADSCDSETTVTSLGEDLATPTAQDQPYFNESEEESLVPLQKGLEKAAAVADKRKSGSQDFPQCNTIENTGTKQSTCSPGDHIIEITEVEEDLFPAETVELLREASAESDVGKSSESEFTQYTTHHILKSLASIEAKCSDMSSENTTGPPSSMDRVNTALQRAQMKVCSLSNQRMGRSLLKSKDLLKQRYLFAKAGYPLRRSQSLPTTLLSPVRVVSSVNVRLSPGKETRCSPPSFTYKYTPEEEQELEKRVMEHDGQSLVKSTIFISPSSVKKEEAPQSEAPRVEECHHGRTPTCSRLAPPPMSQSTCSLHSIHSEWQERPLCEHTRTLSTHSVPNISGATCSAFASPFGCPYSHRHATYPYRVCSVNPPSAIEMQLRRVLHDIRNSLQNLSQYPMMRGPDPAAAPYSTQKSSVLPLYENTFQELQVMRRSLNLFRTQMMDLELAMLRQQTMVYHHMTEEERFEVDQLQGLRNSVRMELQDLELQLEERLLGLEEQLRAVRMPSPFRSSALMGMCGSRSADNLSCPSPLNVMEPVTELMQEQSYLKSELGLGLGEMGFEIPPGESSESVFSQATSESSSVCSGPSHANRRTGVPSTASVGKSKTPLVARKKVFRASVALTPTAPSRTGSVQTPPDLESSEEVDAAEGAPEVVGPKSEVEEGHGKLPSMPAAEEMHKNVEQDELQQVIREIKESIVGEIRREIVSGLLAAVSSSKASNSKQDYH
UniProt Q92993, 123-145: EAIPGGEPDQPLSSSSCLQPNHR
UniProt Q9H1B7, whole entry, looked up: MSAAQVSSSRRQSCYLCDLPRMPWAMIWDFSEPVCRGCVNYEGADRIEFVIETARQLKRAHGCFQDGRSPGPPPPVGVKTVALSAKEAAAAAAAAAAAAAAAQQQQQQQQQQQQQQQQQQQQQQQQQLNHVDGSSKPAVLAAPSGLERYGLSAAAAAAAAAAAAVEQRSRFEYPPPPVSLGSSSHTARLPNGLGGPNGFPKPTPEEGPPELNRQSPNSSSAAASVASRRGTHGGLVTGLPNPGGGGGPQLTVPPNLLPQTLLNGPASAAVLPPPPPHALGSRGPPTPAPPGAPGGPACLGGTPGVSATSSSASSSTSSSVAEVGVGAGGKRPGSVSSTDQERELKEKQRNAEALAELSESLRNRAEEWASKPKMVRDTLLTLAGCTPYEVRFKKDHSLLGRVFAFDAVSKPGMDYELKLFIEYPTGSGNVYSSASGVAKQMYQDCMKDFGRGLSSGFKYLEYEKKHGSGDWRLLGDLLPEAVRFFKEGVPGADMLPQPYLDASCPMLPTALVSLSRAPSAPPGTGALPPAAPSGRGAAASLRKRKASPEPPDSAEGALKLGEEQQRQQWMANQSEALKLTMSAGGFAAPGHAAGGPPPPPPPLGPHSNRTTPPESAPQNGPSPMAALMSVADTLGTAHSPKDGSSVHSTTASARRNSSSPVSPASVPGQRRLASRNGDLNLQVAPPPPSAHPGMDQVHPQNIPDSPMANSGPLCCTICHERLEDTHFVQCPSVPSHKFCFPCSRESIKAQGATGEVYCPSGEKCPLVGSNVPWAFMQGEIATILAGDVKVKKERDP

The targets below were run with ClCC(=O)N[C@H]1CCCc2ccccc12 (assay: log2 mean competition ratio of IA-DTB cysteine labelling (DMSO/compound) (log2 ratio); higher = stronger cysteine engagement by compound). Details: 50 µM; treatment time: 4 h; cell line lysate: HEK293T.
Experimental: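 IA-DTB competitive cysteine chemoproteomics in HEK293T RIPA lysate. Lysates were treated with compound 29 or 30 at 50 or 200 µM for 4 h, then IA-DTB (500 µM, 1 h), trypsin-digested, NeutrAvidin-enriched and analysed by diaPASEF. Competition ratio = intensity DMSO / intensity compound (n=4 treated, n=64 DMSO); binding: mean log2 CR ≥ 1 and p ≤ 0.05 plus QC filters. Target is the cysteine site.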

Target | log2 mean competition ratio
KARS1 C496 (UniProt Q15046) | 0.0369
KIAA1958 C73 | -0.0581
KIF13B C26 (UniProt Q9NQT8) | -0.298
KANK1 C317 (UniProt Q14678) | 0.183
KIF18A C749 | -0.406
KCTD3 C704 (UniProt Q9Y597) | -0.0469
KIF11 C740 (UniProt P52732) | -0.584
KIAA1107 C515 | -0.014
KIF26A C915 (UniProt Q9ULI4) | -0.472
ITPKB C267 (UniProt P27987) | -0.195
KIF22 C65 (UniProt Q14807) | -0.0931
ITPRID2 C673 (UniProt P28290) | 0.225
KAT5 C139 (UniProt Q92993) | -0.185
KDM8 C99 (UniProt Q8N371) | 0.767
KHSRP C176 | 0.264
ITPRID2 C305 (UniProt P28290) | 0.0527
KIF21A C204 | -0.208
IRF2BPL C445 (UniProt Q9H1B7) | -0.0263
KANSL1 C208 (UniProt Q7Z3B3) | 0.145
KIF23 C412 (UniProt Q02241) | 0.171

Same assay, conditions: 200 µM; treatment time: 4 h; cell line lysate: HEK293T

Target | log2 mean competition ratio
KARS1 C496 (UniProt Q15046) | -0.326
KIAA1958 C73 | 0.311
KIF13B C26 (UniProt Q9NQT8) | -0.166
KANK1 C317 (UniProt Q14678) | 0.0698
KIF18A C749 | 0.229
KCTD3 C704 (UniProt Q9Y597) | -0.0169
KIF11 C740 (UniProt P52732) | 0.0521
KIAA1107 C515 | 0.103
KIF26A C915 (UniProt Q9ULI4) | 0.488
ITPKB C267 (UniProt P27987) | -0.568
KIF22 C65 (UniProt Q14807) | 0.268
ITPRID2 C673 (UniProt P28290) | -0.0966
KAT5 C139 (UniProt Q92993) | 0.265
KDM8 C99 (UniProt Q8N371) | 0.362
KHSRP C176 | 0.278
ITPRID2 C305 (UniProt P28290) | 0.0851
KIF21A C204 | 0.0797
IRF2BPL C445 (UniProt Q9H1B7) | 0.0936
KANSL1 C208 (UniProt Q7Z3B3) | -0.419
KIF23 C412 (UniProt Q02241) | -0.537
